Measured values from PMC6712396.
No constants are given. Whether binding was seen depends on the method and setting. In cells and extracts the contact can be indirect. Some binding calls cover weakened binding; strength is not graded here. Where a sequence is shown, tags or fusion partners need not be part of it.

Columns and labels:
[1] = biological target: T1, interferon (IFN)-induced protein 44 (IFI44) fused to a hemagglutinin (HA) epitope tag (human) (UniProt Q8TCB0); test: co-IP
T1 sequence: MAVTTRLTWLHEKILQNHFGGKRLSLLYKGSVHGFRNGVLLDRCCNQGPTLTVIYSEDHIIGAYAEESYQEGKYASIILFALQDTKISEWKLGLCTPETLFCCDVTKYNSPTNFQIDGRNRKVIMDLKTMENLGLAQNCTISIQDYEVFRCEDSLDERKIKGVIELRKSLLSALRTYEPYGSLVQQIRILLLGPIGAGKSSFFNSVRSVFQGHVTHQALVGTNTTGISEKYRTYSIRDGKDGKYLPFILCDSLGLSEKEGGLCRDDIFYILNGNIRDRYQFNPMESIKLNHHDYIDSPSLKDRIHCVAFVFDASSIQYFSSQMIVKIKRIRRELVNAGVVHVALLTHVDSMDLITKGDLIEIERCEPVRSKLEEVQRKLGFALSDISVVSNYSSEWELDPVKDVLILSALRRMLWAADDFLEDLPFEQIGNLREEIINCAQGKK

[2] = biological target: T1, interferon (IFN)-induced protein 44 (IFI44) fused to a hemagglutinin (HA) epitope tag (human); test: co-IP; 293T cells cotransfected 30 h; cleared lysates in Co-IP buffer incubated overnight at 4°C with anti-HA affinity resin (pulls down IFI44-HA); three washes in TBS with 0.1% Tween 20; Western blot with anti-tag antibodies
[3] = biological target: T2, FK506-binding protein 5 (FKBP5) fused to a FLAG epitope tag (human) (UniProt Q13451); test: co-IP; 293T cells cotransfected 30 h; cleared lysates in Co-IP buffer incubated overnight at 4°C with anti-FLAG affinity resin (pulls down FKBP5-FLAG); three washes in TBS with 0.1% SDS; Western blot with anti-tag antibodies; for IKKβ and IKKε in the presence or absence of IFI44-HA
T2 sequence: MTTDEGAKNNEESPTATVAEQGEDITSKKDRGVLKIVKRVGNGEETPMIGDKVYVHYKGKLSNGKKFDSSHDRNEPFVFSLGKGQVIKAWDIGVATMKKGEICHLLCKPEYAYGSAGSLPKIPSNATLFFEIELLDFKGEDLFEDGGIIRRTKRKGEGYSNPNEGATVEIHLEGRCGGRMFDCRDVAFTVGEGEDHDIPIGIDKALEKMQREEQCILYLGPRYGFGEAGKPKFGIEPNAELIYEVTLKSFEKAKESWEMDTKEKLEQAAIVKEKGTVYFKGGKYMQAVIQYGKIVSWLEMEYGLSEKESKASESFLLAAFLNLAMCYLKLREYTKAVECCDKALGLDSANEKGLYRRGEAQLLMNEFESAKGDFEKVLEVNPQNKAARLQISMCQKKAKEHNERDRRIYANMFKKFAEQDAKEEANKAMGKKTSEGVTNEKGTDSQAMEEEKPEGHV

B1: FK506-binding protein 5 (FKBP5) fused to a FLAG epitope tag (protein, UniProt Q13451-1 1-457)
chain: T2 sequence
binding [1]: binds | binding [2]: binds

B2: interferon (IFN)-induced protein 44 (IFI44) fused to a hemagglutinin (HA) epitope tag (protein, UniProt Q8TCB0-1 1-444)
chain: T1 sequence
binding [3]: binds

B3: IKKβ fused to a MYC epitope tag (enzyme, UniProt O14920-1 1-756)
chain: MSWSPSLTTQTCGAWEMKERLGTGGFGNVIRWHNQETGEQIAIKQCRQELSPRNRERWCLEIQIMRRLTHPNVVAARDVPEGMQNLAPNDLPLLAMEYCQGGDLRKYLNQFENCCGLREGAILTLLSDIASALRYLHENRIIHRDLKPENIVLQQGEQRLIHKIIDLGYAKELDQGSLCTSFVGTLQYLAPELLEQQKYTVTVDYWSFGTLAFECITGFRPFLPNWQPVQWHSKVRQKSEVDIVVSEDLNGTVKFSSSLPYPNNLNSVLAERLEKWLQLMLMWHPRQRGTDPTYGPNGCFKALDDILNLKLVHILNMVTGTIHTYPVTEDESLQSLKARIQQDTGIPEEDQELLQEAGLALIPDKPATQCISDGKLNEGHTLDMDLVFLFDNSKITYETQISPRPQPESVSCILQEPKRNLAFFQLRKVWGQVWHSIQTLKEDCNRLQQGQRAAMMNLLRNNSCLSKMKNSMASMSQQLKAKLDFFKTSIQIDLEKYSEQTEFGITSDKLLLAWREMEQAVELCGRENEVKLLVERMMALQTDIVDLQRSPMGRKQGGTLDDLEEQARELYRRLREKPRDQRTEGDSQEMVRLLLQAIQSFEKKVRVIYTQLSKTVVCKQKALELLPKVEEVVSLMNEDEKTVVRLQEKRQKELWNLLKIACSKVRGPVSGSPDSMNASRLSQPGQLMSQPSTASNSLPEPAKKSEELVAEAHNLCTLLENAIQDTVREQDQSFTALDWSWLQTEEEEHSCLEQAS
binding [3]: binds

B4: IKKε fused to a MYC epitope tag (enzyme, UniProt Q14164-1 1-716)
chain: MQSTANYLWHTDDLLGQGATASVYKARNKKSGELVAVKVFNTTSYLRPREVQVREFEVLRKLNHQNIVKLFAVEETGGSRQKVLVMEYCSSGSLLSVLESPENAFGLPEDEFLVVLRCVVAGMNHLRENGIVHRDIKPGNIMRLVGEEGQSIYKLTDFGAARELDDDEKFVSVYGTEEYLHPDMYERAVLRKPQQKAFGVTVDLWSIGVTLYHAATGSLPFIPFGGPRRNKEIMYRITTEKPAGAIAGAQRRENGPLEWSYTLPITCQLSLGLQSQLVPILANILEVEQAKCWGFDQFFAETSDILQRVVVHVFSLSQAVLHHIYIHAHNTIAIFQEAVHKQTSVAPRHQEYLFEGHLCVLEPSVSAQHIAHTTASSPLTLFSTAIPKGLAFRDPALDVPKFVPKVDLQADYNTAKGVLGAGYQALRLARALLDGQELMFRGLHWVMEVLQATCRRTLEVARTSLLYLSSSLGTERFSSVAGTPEIQELKAAAELRSRLRTLAEVLSRCSQNITETQESLSSLNRELVKSRDQVHEDRSIQQIQCCLDKMNFIYKQFKKSRMRPGLGYNEEQIHKLDKVNFSHLAKRLLQVFQEECVQKYQASLVTHGKRMRVVHETRNHLRLVGCSVAACNTEAQGVQESLSKLLEELSHQLLQDRAKGAQASPPPIAPYPSPTRKDLLLHMQELCEGMKLLASDLLDNNRIIERLNRVPAPPDV
binding [3]: binds
